Measured values: PMC4414483
Construct, isoform or probe ends are uncertain for at least one entry. At least one verdict was read from the data and is not stated in words by the source. Tags and fusion partners may be left off the protein sequences shown.

Target: T1, core-SRF (serum response factor core domain) (UniProt P11831)
T1 sequence (looked up): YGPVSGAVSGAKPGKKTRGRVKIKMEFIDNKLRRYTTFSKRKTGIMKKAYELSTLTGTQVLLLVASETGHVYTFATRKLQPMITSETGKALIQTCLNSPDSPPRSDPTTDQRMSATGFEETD
Assay: Raman spectroscopy
Details: 2:1 core-SRF:SRE, about 1e-4 M complex, 5 and 15 C, Kd only cited from ref 12; 10 mM Tris-HCl pH 8.5, 0.1 M NaCl, 1 mM DTT, 1 mM EDTA (mixing buffer before concentration); Raman difference spectra 15 C minus 5 C; recombinant protein; residues 124-245

“GGATGTCCATATTAGGACAT (double strand) [SREfos]”: binds.
